Measurements reported in publication PMC2211464.
These are yes or no findings as the source states them, for the method shown. For some assays here: Binding can be weak; no strength is given. For some assays here: Where a sequence is shown, tags or fusion partners need not be part of it. For some assays here: Binding seen in cells or lysates may run through a third protein.

By UniProt entry, the sequences of proteins in these tests, tags left out. Where a name states a change or a piece, a line headed by the entry shows the natural chain unless it says otherwise.
UniProt P63330: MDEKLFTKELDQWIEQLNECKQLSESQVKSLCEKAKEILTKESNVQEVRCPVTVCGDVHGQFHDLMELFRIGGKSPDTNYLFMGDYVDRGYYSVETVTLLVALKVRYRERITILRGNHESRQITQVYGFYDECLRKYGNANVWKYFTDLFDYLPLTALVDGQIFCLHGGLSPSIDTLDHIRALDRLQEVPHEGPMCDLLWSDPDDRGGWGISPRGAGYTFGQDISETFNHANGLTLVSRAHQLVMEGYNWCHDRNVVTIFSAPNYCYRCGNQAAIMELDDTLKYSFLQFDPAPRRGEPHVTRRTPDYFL

What was measured:
[1] = target: T1, Dishevelled-2 (mouse (endogenous in F9)) (UniProt Q60838); assay: co-IP; lysates of F9 cells (Figure 9A: cytosolic fraction, 1 mg, cells stimulated with Wnt3a for 0-2 hr) precipitated with anti-Dvl2 antibody; blot with anti-PP2A C-subunit; mouse IgG as control
T1 sequence: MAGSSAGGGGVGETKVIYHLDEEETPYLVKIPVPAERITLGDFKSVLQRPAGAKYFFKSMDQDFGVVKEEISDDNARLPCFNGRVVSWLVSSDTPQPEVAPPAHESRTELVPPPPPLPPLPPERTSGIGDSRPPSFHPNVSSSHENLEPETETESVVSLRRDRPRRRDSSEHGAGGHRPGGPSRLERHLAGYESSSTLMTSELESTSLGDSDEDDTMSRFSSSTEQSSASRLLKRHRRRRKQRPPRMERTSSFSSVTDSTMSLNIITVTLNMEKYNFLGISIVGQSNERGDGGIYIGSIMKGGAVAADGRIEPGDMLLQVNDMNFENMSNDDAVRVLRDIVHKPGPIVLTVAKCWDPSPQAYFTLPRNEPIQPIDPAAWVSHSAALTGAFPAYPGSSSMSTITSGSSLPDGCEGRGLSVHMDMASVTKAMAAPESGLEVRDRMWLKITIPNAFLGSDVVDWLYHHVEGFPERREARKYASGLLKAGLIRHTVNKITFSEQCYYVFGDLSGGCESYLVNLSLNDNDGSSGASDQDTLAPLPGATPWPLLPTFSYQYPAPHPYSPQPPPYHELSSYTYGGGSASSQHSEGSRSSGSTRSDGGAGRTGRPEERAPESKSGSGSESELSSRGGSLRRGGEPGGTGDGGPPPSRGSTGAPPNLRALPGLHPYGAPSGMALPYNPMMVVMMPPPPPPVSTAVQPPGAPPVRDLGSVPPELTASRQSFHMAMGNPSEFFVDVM

[2] = target: T2, GST-DEP (amino acids 433-507 of Dvl2) (mouse) (UniProt Q60838); assay: pull-down; purified PP2A (AC dimer, 0.2 μg) incubated 1 hr at 4°C with GST fusions of Dvl2 domains or GST on gel; washed with PBS with 0.5% NP-40; blot with anti-PP2A C-subunit and anti-GST; both purified
T2 sequence: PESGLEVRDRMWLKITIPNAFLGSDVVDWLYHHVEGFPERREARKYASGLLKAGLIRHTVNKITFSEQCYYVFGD

[3] = target: T3, GST-DIX (amino acids 11-93 of Dvl2) (mouse) (UniProt Q60838); assay: as above
T3 sequence: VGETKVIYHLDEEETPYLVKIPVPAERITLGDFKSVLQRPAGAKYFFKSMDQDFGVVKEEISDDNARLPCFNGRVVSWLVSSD

[4] = target: T4, GST-PDZ (amino acids 267-339 of Dvl2) (mouse) (UniProt Q60838); assay: as above
T4 sequence: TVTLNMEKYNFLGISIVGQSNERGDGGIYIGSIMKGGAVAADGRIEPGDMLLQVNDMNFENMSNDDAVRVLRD

[5] = target: T5, GST-SH3 (amino acids 370-376 of Dvl2) (mouse) (UniProt Q60838); assay: as above
T5 sequence: PIQPIDP

Row | binding [1] | binding [2] | binding [3] | binding [4] | binding [5] | Substance
1 | binds | – | – | – | – | Phosphoprotein phosphatase-2A (detected by its C-subunit) (from UniProt P63330) (enzyme)
2 | – | binds | no binding (tested: 0.2 μg PP2A) | no binding (tested: 0.2 μg PP2A) | no binding (tested: 0.2 μg PP2A) | Purified PP2A (AC dimer) (mouse) (complex)
